The assay concerns the target T1, H0YN33 and related entries (UniProt Q9BW66).
T1 sequence (whole entry): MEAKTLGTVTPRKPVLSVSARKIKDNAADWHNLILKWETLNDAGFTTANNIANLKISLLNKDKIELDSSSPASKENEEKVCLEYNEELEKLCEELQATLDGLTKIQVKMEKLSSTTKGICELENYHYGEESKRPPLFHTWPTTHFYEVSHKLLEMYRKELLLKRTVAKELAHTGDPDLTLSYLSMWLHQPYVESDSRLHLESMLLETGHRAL
As to the kind of experiment: NP40-soluble protein abundance relative to vehicle (solubility fold change) (ratio); higher = more soluble protein in presence of GTP. As to the method: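 Solubility proteome profiling in Jurkat crude lysate. Lysate was treated with Mg-GTP (0.1-10 mM) for 10 min at room temperature and 3 min at 37 °C, then solubilised with 0.8% NP40 and benzonase, followed by ultracentrifugation. Proteins were quantified by TMT10 LC-MS/MS; the value is the NP40-soluble abundance relative to the NP40-processed vehicle, from 3 independent experiments.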

From the supplement of paper PMC6411743 come the findings set out here.

± gives the standard deviation of the averaged measurements. The list shows a part of the results.

With `Nc1nc2c(ncn2[C@@H]2O[C@H](COP(=O)(O)OP(=O)(O)OP(=O)(O)O)[C@@H](O)[C@H]2O)c(=O)[nH]1` [guanosine triphosphate], the NP40-soluble protein abundance (concentration: 0.1mM) came to 1.37 ± 0.14; the NP40-soluble protein abundance (concentration: 0.5mM) came to 1.12 ± 0.022; the NP40-soluble protein abundance (concentration: 1mM) is 1.33 ± 0.17; the NP40-soluble protein abundance (concentration: 2mM) is 1.6 ± 0.11; the NP40-soluble protein abundance (concentration: 4mM) stood at 1.61 ± 0.078; the NP40-soluble protein abundance (concentration: 6mM) was 1.63 ± 0.11. Also, the NP40-soluble protein abundance (concentration: 8mM) was found to be 1.69 ± 0.25 and the NP40-soluble protein abundance (concentration: 10mM) was 1.73 ± 0.26.
